One molecule from patent publication US10327423B2, “Antimicrobial compounds and compositions, and uses thereof” (Akeso Biomedical, Inc., priority 2014, dated 2019) can be followed below.

The test system of series [1] is wild type Campylobacter jejuni NCTC 11168. Put plainly: LC-MS metabolomic analysis of spent media. It is filed as cell-based. To be noted: FeQ 340 μM, 48 hours in MHB.
The subject of series [2] is Campylobacter jejuni mutant (MOMP268T/G). Put plainly: LC-MS metabolomic analysis of spent media. Conditions: FeQ 340 μM, 48 hours in MHB. It counts as cell-based.

`O=C1[O][Fe]23([O]C(=O)[C@]4(C[C@@H](O)[C@H](O)[C@H](O)C4)[O]2)([O]C(=O)[C@]2(C[C@@H](O)[C@H](O)[C@H](O)C2)[O]3)[O][C@@]12C[C@@H](O)[C@H](O)[C@H](O)C2` [FeQ, a complex of quinic acid with Fe III]: the “separation of spent media metabolite profiles with and without FeQ (OPLS-DA)” value was “clear separation” in series [1] (negative mode), “clear separation” in series [1] (positive mode), “clear separation” in series [2] (negative mode) and “does not cause large detectable change” in series [2] (positive mode).
